These are yes or no findings as the source states them, for the method shown. Some entries that bind do so weakly or less than the wild type.
T1: TIN2 (StrepII-TINF2, long isoform) (human) (UniProt Q9BSI4)
T1 sequence: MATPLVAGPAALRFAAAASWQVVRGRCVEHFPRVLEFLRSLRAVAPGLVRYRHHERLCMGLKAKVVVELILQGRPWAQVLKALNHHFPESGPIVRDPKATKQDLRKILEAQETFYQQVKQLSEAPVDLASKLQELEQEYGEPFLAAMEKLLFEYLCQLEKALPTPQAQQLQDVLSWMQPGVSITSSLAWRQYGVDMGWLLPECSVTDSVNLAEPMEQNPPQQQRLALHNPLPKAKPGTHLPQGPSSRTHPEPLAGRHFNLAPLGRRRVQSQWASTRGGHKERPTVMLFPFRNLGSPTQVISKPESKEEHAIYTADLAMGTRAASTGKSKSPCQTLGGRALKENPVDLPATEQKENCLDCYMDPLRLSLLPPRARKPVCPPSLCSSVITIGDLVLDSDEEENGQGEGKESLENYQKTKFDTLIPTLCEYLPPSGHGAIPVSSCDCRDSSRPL

B1: RAP1 (protein, UniProt Q9NYB0 1-399)
chain: MAEAMDLGKDPNGPTHSSTLFVRDDGSSMSFYVRPSPAKRRLSTLILHGGGTVCRVQEPGAVLLAQPGEALAEASGDFISTQYILDCVERNERLELEAYRLGPASAADTGSEAKPGALAEGAAEPEPQRHAGRIAFTDADDVAILTYVKENARSPSSVTGNALWKAMEKSSLTQHSWQSLKDRYLKHLRGQEHKYLLGDAPVSPSSQKLKRKAEEDPEAADSGEPQNKRTPDLPEEEYVKEEIQENEEAVKKMLVEATREFEEVVVDESPPDFEIHITMCDDDPPTPEEDSETQPDEEEEEEEEKVSQPEVGAAIKIIRQLMEKFNLDLSTVTQAFLKNSGELEATSAFLASGQRADGYPIWSRQDDIDLQKDDEDTREALVKKFGAQNVARRIEFRKK
B2: POT1 (protein, UniProt Q9NUX5 1-634)
chain: MSLVPATNYIYTPLNQLKGGTIVNVYGVVKFFKPPYLSKGTDYCSVVTIVDQTNVKLTCLLFSGNYEALPIIYKNGDIVRFHRLKIQVYKKETQGITSSGFASLTFEGTLGAPIIPRTSSKYFNFTTEDHKMVEALRVWASTHMSPSWTLLKLCDVQPMQYFDLTCQLLGKAEVDGASFLLKVWDGTRTPFPSWRVLIQDLVLEGDLSHIHRLQNLTIDILVYDNHVHVARSLKVGSFLRIYSLHTKLQSMNSENQTMLSLEFHLHGGTSYGRGIRVLPESNSDVDQLKKDLESANLTANQHSDVICQSEPDDSFPSSGSVSLYEVERCQQLSATILTDHQYLERTPLCAILKQKAPQQYRIRAKLRSYKPRRLFQSVKLHCPKCHLLQEVPHEGDLDIIFQDGATKTPDVKLQNTSLYDSKIWTTKNQKGRKVAVHFVKNNGILPLSNECLLLIEGGTLSEICKLSNKFNSVIPVRSGHEDLELLDLSAPFLIQGTIHHYGCKQCSSLRSIQNLNSLVDKTSWIPSSVAEALGIVPLQYVFVMTFTLDDGTGVLEAYLMDSDKFFQIPASEVLMDDDLQKSVDMIMDMFCPPGIKIDAYPWLECFIKSYNVTNGTDNQICYQIFDTTVAEDVI
B3: TRF1 with the Myb domain deleted, TERF1(D375-431) (protein, UniProt P54274)
chain: MAEDVSSAAPSPRGCADGRDADPTEEQMAETERNDEEQFECQELLECQVQVGAPEEEEEEEEDAGLVAEAEAVAAGWMLDFLCLSLCRAFRDGRSEDFRRTRNSAEAIIHGLSSLTACQLRTIYICQFLTRIAAGKTLDAQFENDERITPLESALMIWGSIEKEHDKLHEEIQNLIKIQAIAVCMENGNFKEAEEVFERIFGDPNSHMPFKSKLLMIISQKDTFHSFFQHFSYNHMMEKIKSYVNYVLSEKSSTFLMKAAAKVVESKRTRTITSQDKPSGNDVEMETEANLDTRKSVSDKQSAVTESSEGTVSLLRSHKNLFLSKLQHGTQQQDLNKKERRVGTPQSTKKKKESRRATESRIPVSKSQPVTPEKLISSDSED

Molecular target: T1, TIN2 (StrepII-TINF2, long isoform) (human)
Experiment: co-purification (Strep-Tactin affinity, then SEC); subunits co-expressed in Hi5 insect cells; lysate (300 mM NaCl) on Streptactin XT resin via the Strep tag on TIN2, biotin elution, Superose 6 in 50 mM HEPES-KOH pH 7.6, 300 mM NaCl, 10% glycerol, 1 mM DTT; SDS-PAGE and immunoblot of the preparations

**Q.** For B1, which binding is on record?
**A.** Its binding is “binds”.

**Q.** Which binding does the source give for B2 here?
**A.** The binding was “binds”.

**Q.** With B3 as the binder, how does the binding read?
**A.** Its binding is “binds”.

From PMC13483900
